Experimental data as given in PubChem BioAssay AID720519 (National Center for Advancing Translational Sciences (NCATS), 2013).
Inconclusive results, whose numbers are uncertain, are shown with a selection of clear calls. A potency beside an inconclusive call is a rough fit, not a confirmed value. Active and inactive are the calls of the source. Calls follow the shape of the dose curve; as a rule, active = well fitted activation curve with a large enough effect; inconclusive = small, poorly fitted or top-dose-only effect; inactive = flat fitted curve, though single readings scatter.

test: qHTS for Inhibitors of Cell Surface uPA Generation: Confirmatory Assay for Cherry-picked Compounds; details: cell surface uPA activity generation, qHTS confirmation; series mostly up to 115 µM; inhibition: at the top concentration; as to inhibition: 0% is about no effect
Method in brief: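 RAW 264.7 cells at 4000/well, incubated overnight, then treated with compounds. After 24 h at 37 C, viability was read by ATPlite luminescence. An increase in signal indicates blocked uPA-dependent LF entry.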
Potency is read from the fitted curve at half-maximal effect.

Potency, inconclusive:
Cc1noc(C)c1CSCC(=O)Nc1cc(Cl)ccc1N1CCCCC1 7.36 µM [activator, partial curve]
C=C1C(=O)[C@@]23[C@H](O)C[C@@H]4C(C)(C)CC[C@H](O)[C@]4(C)[C@@H]2C[C@H](O)[C@@H]1[C@H]3O 58.5 µM [activator, single point]
COC(=O)[C@]1(Cc2ccccc2)N[C@H](CN(C)C(=O)Nc2ccccc2)[C@@H]2C(=O)N(Cc3ccccc3)C(=O)[C@@H]21 11.7 µM [activator, full curve]
COc1cc2c(O)c3c(c(-c4ccc5c(c4)OCO5)c2cc1OC)C(=O)OC3 0.736 µM [activator, full curve, poor fit]
CSc1ccc(CNCCCN(C)C)cc1 46.5 µM [activator, partial curve]

Potency, active:
CCCCn1c(SCC(=O)Nc2cc(C(F)(F)F)ccc2Cl)nnc1C(CC)N(C)C (configuration not stated) 52.1 µM
CCOC(=O)C1=C(C)NC(C)=C(C(=O)OCC)C1C(=O)OCC(=O)NCCc1ccccc1 9.27 µM
COc1ccc(NS(=O)(=O)c2cccc(C(=O)NCc3ccccc3CN3CCCC3)c2)cc1 7.36 µM

inhibition, inactive:
O=C(CSC1=NS(=O)(=O)c2ccccc2N1)Nc1nccs1 -0.932%
Cc1ccc(N2C(=O)CC(N3CCN/C3=C3\CC/C(=C\c4ccccc4)C3=O)C2=O)cc1 (configuration not stated) -1.31%
Cc1cc(C)n(C(=O)c2cccc([N+](=O)[O-])c2)n1 -3.17%
CCOC(=O)c1c(NC(=O)CC2SC(N)=NC2=O)sc2c1CCC(C)C2 (configuration not stated) -2.04%
